Results as given in the supplement of paper PMC12067093, “Discovery and optimisation of a covalent ligand for TRIM25 and its application to targeted protein ubiquitination” (Chemical Science, 2025).
The other results are listed elsewhere or left out.

The chains behind the UniProt entries cited, without tags or fusion partners. Where a name states a change or a piece, a line headed by the entry shows the natural chain unless it says otherwise.
UniProt P41223: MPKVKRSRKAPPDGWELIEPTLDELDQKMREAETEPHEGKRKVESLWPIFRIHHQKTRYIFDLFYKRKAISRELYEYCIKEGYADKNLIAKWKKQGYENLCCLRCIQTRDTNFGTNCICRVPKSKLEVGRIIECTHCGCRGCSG
UniProt A6NDU8: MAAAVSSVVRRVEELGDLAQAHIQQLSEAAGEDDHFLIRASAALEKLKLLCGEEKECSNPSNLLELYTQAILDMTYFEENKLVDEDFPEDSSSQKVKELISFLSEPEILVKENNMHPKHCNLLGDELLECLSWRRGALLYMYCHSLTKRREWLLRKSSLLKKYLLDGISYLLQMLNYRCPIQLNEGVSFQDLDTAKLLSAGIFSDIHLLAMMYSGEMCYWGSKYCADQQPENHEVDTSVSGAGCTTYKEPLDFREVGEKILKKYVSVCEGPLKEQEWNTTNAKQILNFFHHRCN
UniProt Q01518, whole entry, looked up: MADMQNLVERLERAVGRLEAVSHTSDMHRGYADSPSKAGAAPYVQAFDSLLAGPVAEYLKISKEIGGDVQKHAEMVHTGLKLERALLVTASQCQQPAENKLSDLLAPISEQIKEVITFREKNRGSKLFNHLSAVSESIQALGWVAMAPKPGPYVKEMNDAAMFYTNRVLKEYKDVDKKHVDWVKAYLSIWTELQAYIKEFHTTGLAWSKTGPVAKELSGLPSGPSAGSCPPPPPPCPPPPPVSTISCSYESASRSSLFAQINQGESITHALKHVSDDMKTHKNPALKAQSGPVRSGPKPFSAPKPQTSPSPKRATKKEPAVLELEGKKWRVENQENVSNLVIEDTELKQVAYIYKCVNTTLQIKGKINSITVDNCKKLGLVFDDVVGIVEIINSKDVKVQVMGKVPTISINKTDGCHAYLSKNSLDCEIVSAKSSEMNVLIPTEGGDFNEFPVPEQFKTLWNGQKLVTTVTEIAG
UniProt Q9HAS0: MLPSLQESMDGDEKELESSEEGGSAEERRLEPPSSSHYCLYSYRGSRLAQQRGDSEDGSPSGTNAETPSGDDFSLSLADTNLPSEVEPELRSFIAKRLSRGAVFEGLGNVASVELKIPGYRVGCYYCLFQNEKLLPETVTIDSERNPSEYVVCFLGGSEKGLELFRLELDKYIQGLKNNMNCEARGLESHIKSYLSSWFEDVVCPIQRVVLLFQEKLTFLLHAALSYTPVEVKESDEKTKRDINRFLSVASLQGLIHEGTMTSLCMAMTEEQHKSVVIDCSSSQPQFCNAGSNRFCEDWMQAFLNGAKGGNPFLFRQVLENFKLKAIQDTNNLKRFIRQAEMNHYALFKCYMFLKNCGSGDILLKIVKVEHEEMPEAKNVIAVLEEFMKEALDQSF
UniProt P25440, whole entry, looked up: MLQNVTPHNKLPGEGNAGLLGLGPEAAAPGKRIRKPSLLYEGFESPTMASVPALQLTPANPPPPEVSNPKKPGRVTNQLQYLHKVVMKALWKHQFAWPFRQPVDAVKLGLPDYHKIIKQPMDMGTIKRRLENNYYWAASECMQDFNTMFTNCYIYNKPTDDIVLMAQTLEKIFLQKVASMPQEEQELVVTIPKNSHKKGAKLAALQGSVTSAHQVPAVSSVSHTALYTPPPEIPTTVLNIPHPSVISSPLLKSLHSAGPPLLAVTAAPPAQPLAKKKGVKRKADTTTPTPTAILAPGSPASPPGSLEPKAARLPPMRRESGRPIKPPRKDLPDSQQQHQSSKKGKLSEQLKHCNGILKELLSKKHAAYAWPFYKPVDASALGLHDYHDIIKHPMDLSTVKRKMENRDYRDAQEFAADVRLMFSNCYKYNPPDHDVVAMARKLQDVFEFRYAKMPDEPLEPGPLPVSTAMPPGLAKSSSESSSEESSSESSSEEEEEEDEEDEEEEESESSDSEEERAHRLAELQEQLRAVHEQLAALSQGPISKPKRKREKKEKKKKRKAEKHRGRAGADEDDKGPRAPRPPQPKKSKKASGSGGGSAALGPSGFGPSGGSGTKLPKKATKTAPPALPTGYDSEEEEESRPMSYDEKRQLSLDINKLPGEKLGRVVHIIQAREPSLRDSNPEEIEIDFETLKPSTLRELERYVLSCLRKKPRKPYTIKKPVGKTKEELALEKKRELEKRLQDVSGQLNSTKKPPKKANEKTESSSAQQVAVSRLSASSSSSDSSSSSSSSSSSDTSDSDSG
UniProt Q86VP6: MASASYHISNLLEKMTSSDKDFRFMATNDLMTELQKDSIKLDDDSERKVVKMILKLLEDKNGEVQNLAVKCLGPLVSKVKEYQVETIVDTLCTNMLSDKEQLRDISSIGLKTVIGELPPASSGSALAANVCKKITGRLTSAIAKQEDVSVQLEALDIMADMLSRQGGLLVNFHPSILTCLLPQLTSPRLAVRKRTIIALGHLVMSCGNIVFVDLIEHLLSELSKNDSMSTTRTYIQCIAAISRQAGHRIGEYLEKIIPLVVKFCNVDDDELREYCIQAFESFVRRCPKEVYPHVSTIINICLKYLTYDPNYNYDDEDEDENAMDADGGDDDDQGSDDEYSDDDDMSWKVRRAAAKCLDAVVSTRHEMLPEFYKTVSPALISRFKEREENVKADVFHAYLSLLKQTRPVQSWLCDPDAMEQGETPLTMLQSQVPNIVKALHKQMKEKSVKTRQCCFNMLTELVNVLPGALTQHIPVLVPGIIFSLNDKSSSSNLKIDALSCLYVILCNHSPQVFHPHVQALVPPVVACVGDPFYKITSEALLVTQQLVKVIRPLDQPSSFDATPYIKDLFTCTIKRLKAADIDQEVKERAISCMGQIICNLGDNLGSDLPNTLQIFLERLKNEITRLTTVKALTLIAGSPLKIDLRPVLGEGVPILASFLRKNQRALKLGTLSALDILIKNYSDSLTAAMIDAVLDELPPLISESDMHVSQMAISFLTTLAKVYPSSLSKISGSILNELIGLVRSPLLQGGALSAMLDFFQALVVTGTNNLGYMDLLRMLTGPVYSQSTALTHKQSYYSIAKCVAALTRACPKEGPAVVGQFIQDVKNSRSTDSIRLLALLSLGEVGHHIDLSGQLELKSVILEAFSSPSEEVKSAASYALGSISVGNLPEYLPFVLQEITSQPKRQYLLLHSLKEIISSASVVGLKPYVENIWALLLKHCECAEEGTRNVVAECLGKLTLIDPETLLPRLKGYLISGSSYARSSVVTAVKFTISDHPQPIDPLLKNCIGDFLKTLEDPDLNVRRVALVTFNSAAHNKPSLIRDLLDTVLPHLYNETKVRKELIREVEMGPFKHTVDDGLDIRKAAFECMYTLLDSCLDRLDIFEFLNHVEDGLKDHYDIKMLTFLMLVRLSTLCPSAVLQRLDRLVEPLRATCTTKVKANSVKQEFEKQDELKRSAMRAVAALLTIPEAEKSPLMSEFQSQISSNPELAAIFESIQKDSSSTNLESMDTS
UniProt O14981: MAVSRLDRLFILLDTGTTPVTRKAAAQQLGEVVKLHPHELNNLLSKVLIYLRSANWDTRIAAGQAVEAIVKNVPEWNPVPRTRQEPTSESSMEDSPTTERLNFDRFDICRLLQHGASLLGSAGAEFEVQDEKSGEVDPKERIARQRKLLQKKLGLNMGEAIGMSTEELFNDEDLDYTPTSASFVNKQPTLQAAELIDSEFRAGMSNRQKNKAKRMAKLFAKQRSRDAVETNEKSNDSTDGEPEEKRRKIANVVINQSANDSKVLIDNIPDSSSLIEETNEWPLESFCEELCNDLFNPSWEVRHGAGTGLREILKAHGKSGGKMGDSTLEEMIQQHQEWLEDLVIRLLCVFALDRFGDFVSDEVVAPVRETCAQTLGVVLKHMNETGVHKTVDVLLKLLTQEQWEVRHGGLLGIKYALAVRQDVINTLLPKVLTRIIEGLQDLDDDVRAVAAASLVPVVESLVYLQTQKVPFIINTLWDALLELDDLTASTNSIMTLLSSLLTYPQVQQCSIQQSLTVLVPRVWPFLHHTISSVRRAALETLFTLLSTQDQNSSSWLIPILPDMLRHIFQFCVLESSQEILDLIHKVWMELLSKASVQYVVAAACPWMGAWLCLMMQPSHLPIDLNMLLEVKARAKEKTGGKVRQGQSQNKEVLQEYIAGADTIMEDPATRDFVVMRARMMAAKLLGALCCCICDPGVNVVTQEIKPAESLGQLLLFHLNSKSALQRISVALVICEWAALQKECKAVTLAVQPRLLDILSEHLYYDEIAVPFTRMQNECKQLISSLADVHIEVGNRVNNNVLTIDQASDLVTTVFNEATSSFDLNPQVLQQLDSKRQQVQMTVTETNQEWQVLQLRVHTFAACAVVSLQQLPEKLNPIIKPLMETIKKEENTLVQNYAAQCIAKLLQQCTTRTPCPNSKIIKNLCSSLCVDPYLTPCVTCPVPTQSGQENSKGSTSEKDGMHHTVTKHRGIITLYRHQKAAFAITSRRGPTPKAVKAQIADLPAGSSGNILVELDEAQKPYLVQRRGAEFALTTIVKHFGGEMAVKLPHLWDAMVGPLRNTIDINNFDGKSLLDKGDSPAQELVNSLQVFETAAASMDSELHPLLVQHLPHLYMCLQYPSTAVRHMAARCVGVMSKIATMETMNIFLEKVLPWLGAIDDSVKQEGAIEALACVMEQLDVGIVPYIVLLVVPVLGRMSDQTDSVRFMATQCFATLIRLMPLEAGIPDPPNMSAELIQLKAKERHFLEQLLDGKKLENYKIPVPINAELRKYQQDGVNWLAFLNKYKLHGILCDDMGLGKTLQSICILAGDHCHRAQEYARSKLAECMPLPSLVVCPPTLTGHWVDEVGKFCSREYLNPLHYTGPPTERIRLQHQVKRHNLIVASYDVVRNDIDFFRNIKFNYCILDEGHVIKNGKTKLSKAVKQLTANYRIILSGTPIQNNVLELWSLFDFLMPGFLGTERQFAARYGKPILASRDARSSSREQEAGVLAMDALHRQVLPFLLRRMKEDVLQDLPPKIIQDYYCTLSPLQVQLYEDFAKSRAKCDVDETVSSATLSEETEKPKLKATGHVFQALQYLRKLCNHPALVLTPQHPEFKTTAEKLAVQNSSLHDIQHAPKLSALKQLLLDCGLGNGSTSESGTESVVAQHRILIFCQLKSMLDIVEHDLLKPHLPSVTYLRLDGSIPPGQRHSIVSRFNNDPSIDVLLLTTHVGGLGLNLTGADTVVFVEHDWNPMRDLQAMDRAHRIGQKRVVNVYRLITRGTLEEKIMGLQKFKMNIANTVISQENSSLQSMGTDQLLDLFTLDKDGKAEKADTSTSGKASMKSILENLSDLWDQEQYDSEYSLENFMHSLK
UniProt Q9HB07: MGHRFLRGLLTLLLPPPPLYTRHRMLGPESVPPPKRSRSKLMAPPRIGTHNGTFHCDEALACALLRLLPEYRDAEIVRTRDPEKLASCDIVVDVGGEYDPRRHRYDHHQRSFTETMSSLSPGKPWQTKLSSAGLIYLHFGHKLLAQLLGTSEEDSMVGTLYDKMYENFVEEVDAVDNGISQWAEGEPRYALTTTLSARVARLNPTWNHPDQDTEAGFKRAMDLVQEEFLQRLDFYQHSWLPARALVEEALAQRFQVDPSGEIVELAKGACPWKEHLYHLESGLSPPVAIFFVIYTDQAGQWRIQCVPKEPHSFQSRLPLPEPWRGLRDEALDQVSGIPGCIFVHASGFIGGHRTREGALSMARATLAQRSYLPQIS

Compound: Cc1cc(ccc1-c1ccccc1)C(=O)N1CCCN(CC1)C(=O)CCl [compound 10]
Experiment: probe-labelled cysteine peptide fold change vs DMSO (competition) (log2 fold change); higher = less target engagement (more negative = stronger competition)
Settings: THP-1, incubation time: 4 h
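Also: competitive profiling in live THP-1 cells: cysteine peptides tagged with an iodoacetamide desthiobiotin (IA-DTB) probe, intensity after compound treatment relative to DMSO-treated cells.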

BUD31_P41223_137_IIECTHCGCR (UniProt P41223)
probe-labelled cysteine peptide fold change (10 µM): -0.0339
probe-labelled cysteine peptide fold change (50 µM): -0.0657

CALR_P27797_163_CKDDEFTHLYTLIVR (UniProt P27797)
probe-labelled cysteine peptide fold change (10 µM): -0.0557
probe-labelled cysteine peptide fold change (50 µM): 0.319

BUB1_O43683_1013_NEGGECKPEGLFR (UniProt O43683)
probe-labelled cysteine peptide fold change (10 µM): 0.156
probe-labelled cysteine peptide fold change (50 µM): 0.12

C16orf62_Q7Z3J2_214_IVIQCSK (UniProt Q7Z3J2)
probe-labelled cysteine peptide fold change (10 µM): 0.0821
probe-labelled cysteine peptide fold change (50 µM): -0.081

CAD_P27708_897_QELGICPAVK (UniProt P27708)
probe-labelled cysteine peptide fold change (10 µM): 0.0277
probe-labelled cysteine peptide fold change (50 µM): -0.0532

CAD_P27708_2161_FGSTQEYEACFGQFILTPHIMTR (UniProt P27708)
probe-labelled cysteine peptide fold change (10 µM): 0.0378
probe-labelled cysteine peptide fold change (50 µM): 0.111

CANX_P27824_360+366_CESAPGCGVWQRPVIDNPNYK (UniProt P27824)
probe-labelled cysteine peptide fold change (10 µM): 0.0671
probe-labelled cysteine peptide fold change (50 µM): -0.0416

CALCOCO2_Q13137_443_QIFEDHVFCHSL (UniProt Q13137)
probe-labelled cysteine peptide fold change (10 µM): -0.333
probe-labelled cysteine peptide fold change (50 µM): -0.356

CAMK2D_Q13557_127_EYYSEADASHCIQQILESVNHCHLNGIVHR (UniProt Q13557)
probe-labelled cysteine peptide fold change (10 µM): 0.0584
probe-labelled cysteine peptide fold change (50 µM): 0.033

CAD_P27708_986_TIMVNYNPETVSTDYDMCDR (UniProt P27708)
probe-labelled cysteine peptide fold change (10 µM): 0.161
probe-labelled cysteine peptide fold change (50 µM): 0.356

BUD31_P41223_102_QGYENLCCLR (UniProt P41223)
probe-labelled cysteine peptide fold change (10 µM): 0.0475
probe-labelled cysteine peptide fold change (50 µM): -0.158

CAMK2B_Q13554_116_EYYSEADASHCIQQILEAVLHCHQMGVVHR (UniProt Q13554)
probe-labelled cysteine peptide fold change (10 µM): -0.0191
probe-labelled cysteine peptide fold change (50 µM): 0.141

BRF1_Q92994_229_RPSGLCGAALLVAAR (UniProt Q92994)
probe-labelled cysteine peptide fold change (10 µM): -0.209
probe-labelled cysteine peptide fold change (50 µM): -0.228

C20orf27_Q9GZN8_156_CVGAELEYDSEHSDWHGFD (UniProt Q9GZN8)
probe-labelled cysteine peptide fold change (10 µM): -0.0571
probe-labelled cysteine peptide fold change (50 µM): -0.261

BUB3_O43684_129_TPCNAGTFSQPEK (UniProt O43684)
probe-labelled cysteine peptide fold change (10 µM): -0.13
probe-labelled cysteine peptide fold change (50 µM): 0.153

C5orf51_A6NDU8_268_KYVSVCEGPLK (UniProt A6NDU8)
probe-labelled cysteine peptide fold change (10 µM): -0.0332
probe-labelled cysteine peptide fold change (50 µM): -0.196

CAMK2G_Q13555_7_ATTATCTR (UniProt Q13555)
probe-labelled cysteine peptide fold change (10 µM): -0.074
probe-labelled cysteine peptide fold change (50 µM): -0.162

C12orf4_Q9NQ89_55_LMLLHSLPCFIEK (UniProt Q9NQ89)
probe-labelled cysteine peptide fold change (10 µM): -0.0861
probe-labelled cysteine peptide fold change (50 µM): -0.613

BTK_Q06187_633_VYTIMYSCWHEK (UniProt Q06187)
probe-labelled cysteine peptide fold change (10 µM): -0.0117
probe-labelled cysteine peptide fold change (50 µM): -0.0407

CALR_P27797_137_LFPNSLDQTDMHGDSEYNIMFGPDICGPGTK (UniProt P27797)
probe-labelled cysteine peptide fold change (10 µM): -0.0389
probe-labelled cysteine peptide fold change (50 µM): 0.0181

BRCA2_P51587_1399_AQEACHGNTSNK (UniProt P51587)
probe-labelled cysteine peptide fold change (10 µM): -0.233
probe-labelled cysteine peptide fold change (50 µM): -0.571

C20orf27_Q9GZN8_106_CEYSAHK (UniProt Q9GZN8)
probe-labelled cysteine peptide fold change (10 µM): 0.129
probe-labelled cysteine peptide fold change (50 µM): -0.0108

C1GALT1_Q9NS00_232_CTHSSSIEDLALGR (UniProt Q9NS00)
probe-labelled cysteine peptide fold change (10 µM): 0.236
probe-labelled cysteine peptide fold change (50 µM): -0.139

CAP1_Q01518_375_GKINSITVDNCKK (UniProt Q01518)
probe-labelled cysteine peptide fold change (10 µM): -0.169
probe-labelled cysteine peptide fold change (50 µM): -0.947

C17orf75_Q9HAS0_265_FLSVASLQGLIHEGTMTSLCMAMTEEQHK (UniProt Q9HAS0)
probe-labelled cysteine peptide fold change (10 µM): 0.0249
probe-labelled cysteine peptide fold change (50 µM): -0.756

BRIP1_Q9BX63_332_ISDQHTLQTFQGMCK (UniProt Q9BX63)
probe-labelled cysteine peptide fold change (10 µM): 0.0753
probe-labelled cysteine peptide fold change (50 µM): -0.144

BRD2_P25440_353_HCNGILK (UniProt P25440)
probe-labelled cysteine peptide fold change (10 µM): 0.0541
probe-labelled cysteine peptide fold change (50 µM): 0.0166

CAND1_Q86VP6_571_DLFTCTIK (UniProt Q86VP6)
probe-labelled cysteine peptide fold change (10 µM): 0.144
probe-labelled cysteine peptide fold change (50 µM): 0.168

C5orf51_A6NDU8_120_HCNLLGDELLECLSWR (UniProt A6NDU8)
probe-labelled cysteine peptide fold change (10 µM): -0.203
probe-labelled cysteine peptide fold change (50 µM): -0.282

BTAF1_O14981_1522_IIQDYYCTLSPLQVQLYEDFAK (UniProt O14981)
probe-labelled cysteine peptide fold change (10 µM): -0.135
probe-labelled cysteine peptide fold change (50 µM): 0.243

C3_P01024_873_VRVELLHNPAFCSLATTK (UniProt P01024)
probe-labelled cysteine peptide fold change (10 µM): -0.489
probe-labelled cysteine peptide fold change (50 µM): -0.6

C6orf120_Q7Z4R8_99_GDADLYVSASSLHPSFDDYELQSATCGPDAVSIPAHFR (UniProt Q7Z4R8)
probe-labelled cysteine peptide fold change (10 µM): -0.00545
probe-labelled cysteine peptide fold change (50 µM): 0.205

C2CD2_Q9Y426_244_EAQNLQCAASTAQESCPPKPPR (UniProt Q9Y426)
probe-labelled cysteine peptide fold change (10 µM): -0.208
probe-labelled cysteine peptide fold change (50 µM): -0.189

C12orf10_Q9HB07_56+62_IGTHNGTFHCDEALACALLR (UniProt Q9HB07)
probe-labelled cysteine peptide fold change (10 µM): 0.0654
probe-labelled cysteine peptide fold change (50 µM): -0.118

CACYBP_Q9HB71_154_VKTDTVLILCR (UniProt Q9HB71)
probe-labelled cysteine peptide fold change (10 µM): -0.0671
probe-labelled cysteine peptide fold change (50 µM): -0.417

C3_P01024_1637_DTWVEHWPEEDECQDEENQK (UniProt P01024)
probe-labelled cysteine peptide fold change (10 µM): -0.437
probe-labelled cysteine peptide fold change (50 µM): -0.17

CAB39_Q9Y376_121_TPTVEYICTQQNILFMLLK (UniProt Q9Y376)
probe-labelled cysteine peptide fold change (10 µM): 0.245
probe-labelled cysteine peptide fold change (50 µM): 0.48

C16orf62_Q7Z3J2_665_SMFCNLEPVLVQLIHSVNR (UniProt Q7Z3J2)
probe-labelled cysteine peptide fold change (10 µM): -0.0896
probe-labelled cysteine peptide fold change (50 µM): 0.00123

BRWD3_Q6RI45_1147_DEECER (UniProt Q6RI45)
probe-labelled cysteine peptide fold change (10 µM): 0.179
probe-labelled cysteine peptide fold change (50 µM): 0.381

CAMK1_Q14012_355_DCCVEPGTELSPTLPHQL (UniProt Q14012)
probe-labelled cysteine peptide fold change (10 µM): 0.0801
probe-labelled cysteine peptide fold change (50 µM): 0.281

CAND1_Q86VP6_1153_ATCTTK (UniProt Q86VP6)
probe-labelled cysteine peptide fold change (10 µM): -0.229
probe-labelled cysteine peptide fold change (50 µM): -0.122

C17orf75_Q9HAS0_182_NNMNCEAR (UniProt Q9HAS0)
probe-labelled cysteine peptide fold change (10 µM): -0.303
probe-labelled cysteine peptide fold change (50 µM): -0.523

CAMSAP1_Q5T5Y3_1507_CDANHYIILFR (UniProt Q5T5Y3)
probe-labelled cysteine peptide fold change (10 µM): -0.0167
probe-labelled cysteine peptide fold change (50 µM): -0.118

CALR_P27797_137_LFPNSLDQTDMHGDSEYNIMFGPDICGPGTKK (UniProt P27797)
probe-labelled cysteine peptide fold change (10 µM): -0.0987
probe-labelled cysteine peptide fold change (50 µM): -0.353

CAMKV_Q8NCB2_181_EPCGTPEYLAPEVVGR (UniProt Q8NCB2)
probe-labelled cysteine peptide fold change (10 µM): -0.22
probe-labelled cysteine peptide fold change (50 µM): -0.11

C3orf58_Q8NDZ4_402_DGRLEALLDECANPK (UniProt Q8NDZ4)
probe-labelled cysteine peptide fold change (10 µM): -0.198
probe-labelled cysteine peptide fold change (50 µM): 0.11

BRD1_O95696_341_GVGACIQCHK (UniProt O95696)
probe-labelled cysteine peptide fold change (10 µM): 0.0942
probe-labelled cysteine peptide fold change (50 µM): -0.0457

BTG3_Q14201_238_NKPYRPIPVTWVPPPGMHCDR (UniProt Q14201)
probe-labelled cysteine peptide fold change (10 µM): -0.582
probe-labelled cysteine peptide fold change (50 µM): -0.498

CAMK2B_Q13554_561_ICDPGLTSFEPEALGNLVEGMDFHR (UniProt Q13554)
probe-labelled cysteine peptide fold change (10 µM): 0.0164
probe-labelled cysteine peptide fold change (50 µM): -0.0985

C1orf123_Q9NWV4_33+36_CGNCGEISDK (UniProt Q9NWV4)
probe-labelled cysteine peptide fold change (10 µM): -0.0103
probe-labelled cysteine peptide fold change (50 µM): -0.232

C17orf53_Q8N3J3_209_VVDLSGSCQK (UniProt Q8N3J3)
probe-labelled cysteine peptide fold change (10 µM): -0.102
probe-labelled cysteine peptide fold change (50 µM): -0.152

BTN3A3_O00478_166_GYEDGGIHLECR (UniProt O00478)
probe-labelled cysteine peptide fold change (10 µM): -0.0485
probe-labelled cysteine peptide fold change (50 µM): 0.291

BST1_Q10588_83_VALDKDPCSVLPSDYDLFINLSR (UniProt Q10588)
probe-labelled cysteine peptide fold change (10 µM): -0.187
probe-labelled cysteine peptide fold change (50 µM): -0.386

C11orf54_Q9H0W9_226_SHIMPAEFSSCPLNSDEEVNK (UniProt Q9H0W9)
probe-labelled cysteine peptide fold change (10 µM): -0.0406
probe-labelled cysteine peptide fold change (50 µM): -0.12

C15orf40_Q8WUR7_62_GCVTIAIHAK (UniProt Q8WUR7)
probe-labelled cysteine peptide fold change (10 µM): 0.168
probe-labelled cysteine peptide fold change (50 µM): -0.0437

BTAF1_O14981_1209_FMATQCFATLIR (UniProt O14981)
probe-labelled cysteine peptide fold change (10 µM): 0.0615
probe-labelled cysteine peptide fold change (50 µM): 0.229

BROX_Q5VW32_52_LLELFTDLSCNPEMMK (UniProt Q5VW32)
probe-labelled cysteine peptide fold change (10 µM): -0.00582
probe-labelled cysteine peptide fold change (50 µM): -0.0054

CAND2_O75155_358_CIAALISSRPDLLPDFHCTLAPVLIR (UniProt O75155)
probe-labelled cysteine peptide fold change (10 µM): 0.229
probe-labelled cysteine peptide fold change (50 µM): -0.0975

C12orf49_Q9H741_93_HLITDELGYVCER (UniProt Q9H741)
probe-labelled cysteine peptide fold change (10 µM): -0.0438
probe-labelled cysteine peptide fold change (50 µM): -0.0416

CAMK2D_Q13557_116_EYYSEADASHCIQQILESVNHCHLNGIVHR (UniProt Q13557)
probe-labelled cysteine peptide fold change (10 µM): 0.225
probe-labelled cysteine peptide fold change (50 µM): -0.0231

C12orf10_Q9HB07_62_IGTHNGTFHCDEALACALLR (UniProt Q9HB07)
probe-labelled cysteine peptide fold change (10 µM): -0.128
probe-labelled cysteine peptide fold change (50 µM): -0.413

CAD_P27708_252_VLSEPNPRPVFGICLGHQLLALAIGAK (UniProt P27708)
probe-labelled cysteine peptide fold change (10 µM): -0.467
probe-labelled cysteine peptide fold change (50 µM): -0.598
